Source: the supplement of paper PMC9135407
Where “and” joins values, the source holds several entries; their conditions need not be identical. Equal entries are not always repeated. Structures can show the parent of a compound that is named as a salt. ± gives the standard deviation of the averaged measurements. This is one part of the list. Plates or batches differ in their baseline, so values are only roughly comparable.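 Primary human stellate myofibroblasts activated in culture; inactivation shown by regained lipid droplets. Readout: fraction of Hoechst-counted cells exceeding a per-plate Bodipy threshold, duplicate wells, each plate with DMSO negative and nortriptyline positive controls. Hits: control-normalized score beyond the plate's top-tenth-percentile nortriptyline wells, or among its three best wells. Final well concentrations unstated.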

Tested on: primary human hepatic stellate cells (donor 1)
Assay: percent Bodipy-positive cells; higher = more lipid droplet accumulation
Conditions: 48 h
[1] = library stock concentration: 3.33 mM
[2] = library stock concentration: 10 mM
[3] = library stock concentration: 80 uM
[4] = library stock concentration: 400 uM
[5] = library stock concentration: 2 mM
[6] = library stock concentration: 1 mM

## CN(C)C(=O)c1cc2cnc(Nc3ccc(N4CCNCC4)cn3)nc2n1C1CCCC1
[1]
  percent Bodipy-positive cells: 55.8 ± 11%
[2]
  percent Bodipy-positive cells: 75.25 ± 0.077%

## CN(C)C(=O)c1cc2cnc(Nc3ccc(N4CCNCC4)cn3)nc2n1C1CCCC1 [Ribociclib]
[3]
  percent Bodipy-positive cells: 6.75 ± 2.8%
[4]
  percent Bodipy-positive cells: 4.422 ± 0.014%
[5]
  percent Bodipy-positive cells: 9.12 ± 0.24%
[2]
  percent Bodipy-positive cells: 28.5 ± 1.1%

## Cc1cccc(C)c1NC(=O)CN1CCN(CCCC(c2ccc(F)cc2)c2ccc(F)cc2)CC1 [Lidoflazine]
  percent Bodipy-positive cells: 31.5 ± 4.4%

## Cc1nc(N=Nc2cc(S(=O)(=O)O)c3cc([N+](=O)[O-])cc(S(=O)(=O)O)c3c2)c(COP(=O)(O)O)c(C=O)c1O [PPNDS tetrasodium]
[2]
  percent Bodipy-positive cells: 17.1 ± 4.3%

## CN(C)CCCN1c2ccccc2CCc2ccc(Cl)cc21.Cl [Clomipramine hydrochloride]
  percent Bodipy-positive cells: 78.9 ± 4.1%

## Cc1cccc(C2CN(C)CCc3c2cc(O)c(O)c3Cl)c1 (stereo unspecified)
[2]
  percent Bodipy-positive cells: 31.7 ± 1.6%

## CCCCCCCCCCC/C=C\C/C=C\CCCC(=O)O [Eicosa-5,8-dienoic acid (20:2 n-12)]
[6]
  percent Bodipy-positive cells: 10.4 ± 6.3%

## Cc1c(C)c2c(c(C)c1O)CCC(C)(CCCC(C)CCCC(C)CCCC(C)C)O2 (stereo not drawn) [Alpha-tochopherol]
[2]
  percent Bodipy-positive cells: 34.6 ± 5.9%

## COc1cc(C)c(Cc2cnc(N)nc2N)cc1OC
[2]
  percent Bodipy-positive cells: 9 ± 4.3%

## COc1cc2nc(N3CCN(C(=O)c4ccco4)CC3)nc(N)c2cc1OC.Cl [Prazosin hydrochloride]
[2]
  percent Bodipy-positive cells: 92.4 ± 3.4%

## Nc1nc(=O)[nH]cc1F [Flucytosine]
  percent Bodipy-positive cells: 9.63 ± 0.26%
[1]
  percent Bodipy-positive cells: 20.2 ± 20%
[2]
  percent Bodipy-positive cells: 8.48 ± 2.1%
Library stock concentration: 15.5 mM
  percent Bodipy-positive cells: 14.1 ± 9.7%

## CCN1CCN(c2ccc(Nc3cc(N(C)C(=O)Nc4c(Cl)c(OC)cc(OC)c4Cl)ncn3)cc2)CC1
[3]
  percent Bodipy-positive cells: 14.1 ± 1.8%
[4]
  percent Bodipy-positive cells: 21.4 ± 6.6%
[5]
  percent Bodipy-positive cells: 28.4 ± 14%
[2]
  percent Bodipy-positive cells: 40.2 ± 4%

## Oc1cc(O)cc(/C=C/c2ccc(O)c(O)c2)c1 [Piceatannol]
[1]
  percent Bodipy-positive cells: 6.92 ± 1%
[2]
  percent Bodipy-positive cells: 3.96% and 8.1% and 4.39%

## CC[C@@]1(O)C(=O)OCc2c1cc1n(c2=O)Cc2cc3c(CN(C)C)c(O)ccc3nc2-1 [Topotecan]
Library stock concentration: 4.7 mM
  percent Bodipy-positive cells: 6.24 ± 2.1%

## CC[C@@]1(O)C(=O)OCc2c1cc1n(c2=O)Cc2cc3c(CN(C)C)c(O)ccc3nc2-1
[2]
  percent Bodipy-positive cells: 17.9 ± 4%

## CC[C@@]1(O)C(=O)OCc2c1cc1n(c2=O)Cc2cc3c(CN(C)C)c(O)ccc3nc2-1 [Topotecan hydrochloride]
Library stock concentration: 4.4 mM
  percent Bodipy-positive cells: 30.6 ± 2%
[2]
  percent Bodipy-positive cells: 49.6 ± 1.3%

## CC[C@@]1(O)C(=O)OCc2c1cc1n(c2=O)Cc2cc3c(CN(C)C)c(O)ccc3nc2-1 [Topotecan HCl]
[1]
  percent Bodipy-positive cells: 12.7 ± 1.4%
[2]
  percent Bodipy-positive cells: 29.7 ± 1.4%

## CC[C@@]1(O)C(=O)OCc2c1cc1n(c2=O)Cc2cc3c(CN(C)C)c(O)ccc3nc2-1 [Topotecan hydrochloride hydrate]
[2]
  percent Bodipy-positive cells: 51.6 ± 11%

## Nc1nnc(-c2cccc(Cl)c2Cl)c(N)n1 [Lamotrigine]
[1]
  percent Bodipy-positive cells: 22.2 ± 5%
Library stock concentration: 7.8 mM
  percent Bodipy-positive cells: 11.6% and 9.42%
[2]
  percent Bodipy-positive cells: 8.25% and 32.3%

## Brc1ccc(C2CN3CCSC3=N2)cc1 (single isomer, unassigned; (-)) [(-)-p-Bromotetramisole Oxalate]
[1]
  percent Bodipy-positive cells: 30.6 ± 4.4%
[2]
  percent Bodipy-positive cells: 56 ± 9.3%

## Cc1cc(Nc2cc(CN3CCOCC3)c3nc(C)c(Cc4ccc(Cl)cc4F)n3n2)n[nH]1
[1]
  percent Bodipy-positive cells: 18.5 ± 2.4%
[2]
  percent Bodipy-positive cells: 98.4 ± 2.2%

## CCCCCCCCc1ccc(CCC(N)(CO)CO)cc1.Cl [Fingolimod (FTY720) HCl]
[1]
  percent Bodipy-positive cells: 97.54 ± 0.16%

## NC(C(=O)O)c1ccc(C(=O)O)c(C(=O)O)c1 (racemic)
[2]
  percent Bodipy-positive cells: 5.87 ± 3.4%

## O=C(O)CCC/C=C\C[C@H]1[C@@H](O)CC(=O)[C@@H]1/C=C/[C@@H](O)COc1cccc(C(F)(F)F)c1 [11-keto Fluprostenol]
[6]
  percent Bodipy-positive cells: 23.23 ± 0.21%

## CCCCCS(=O)(=O)CCCCCCCCCCn1c(-c2ccc(O)cc2)c(C)c2cc(O)ccc21
[2]
  percent Bodipy-positive cells: 9.87 ± 1.8%

## COc1cc2c(Oc3ccc4[nH]c(C)cc4c3F)ncnc2cc1OCCCN1CCCC1 [Cediranib (AZD2171)]
[1]
  percent Bodipy-positive cells: 84.1 ± 5%

## O=C1c2ccccc2CCC1CNCCc1ccc(O)cc1 (stereo unspecified) [HEAT hydrochloride]
[2]
  percent Bodipy-positive cells: 77.7 ± 26%

## O=C(O)c1ccc(O)c2ncccc12
[1]
  percent Bodipy-positive cells: 25 ± 3.7%
[2]
  percent Bodipy-positive cells: 46.2 ± 12%

## COc1cc2ncnc(Nc3ccc(O)c(Br)c3)c2cc1OC [JAK3 Inhibitor II]
[1]
  percent Bodipy-positive cells: 10.8 ± 3.5%

## COc1cc2ncnc(Nc3ccc(O)c(Br)c3)c2cc1OC
[1]
  percent Bodipy-positive cells: 5.44 ± 2%
[2]
  percent Bodipy-positive cells: 25.2 ± 16%

## COCCCC/C(=N\OCCN)c1ccc(C(F)(F)F)cc1.O=C(O)/C=C\C(=O)O [Fluvoxamine maleate]
[2]
  percent Bodipy-positive cells: 95.1 ± 3%

## COc1cc(-c2cc(-c3cccc(O)c3)cnc2N)cc(OC)c1OC
[1]
  percent Bodipy-positive cells: 18.2 ± 6.5%
[2]
  percent Bodipy-positive cells: 58.3 ± 26%

## C#CC1(O)CC[C@H]2[C@@H]3CCC4=CC(=O)CC[C@@H]4[C@H]3CC[C@@]21CC (stereo partly specified) [Norgestrel]
[6]
  percent Bodipy-positive cells: 6.204 ± 0.022%
[2]
  percent Bodipy-positive cells: 13.9 ± 1.5%

## CCCC(=O)Nc1cccc(NC(=O)c2ccccc2Br)c1
[1]
  percent Bodipy-positive cells: 11.1 ± 1.1%
[2]
  percent Bodipy-positive cells: 29.1 ± 6%

## CCCCC/C=C\C=C1\C(=O)CC[C@@H]1C/C=C\CCCC(=O)O
[6]
  percent Bodipy-positive cells: 14.2 ± 3.4%

## CO[C@H]1C[C@@H]2CC[C@@H](C)[C@@](O)(O2)C(=O)C(=O)N2CCCC[C@H]2C(=O)O[C@H]([C@H](C)C[C@@H]2CC[C@H](n3cnnn3)[C@H](OC)C2)CC(=O)[C@H](C)/C=C(\C)[C@@H](O)[C@@H](OC)C(=O)[C@H](C)C[C@H](C)/C=C/C=C/C=C/1C [Zotarolimus(ABT-578)]
[1]
  percent Bodipy-positive cells: 20.712 ± 0.0028%
[2]
  percent Bodipy-positive cells: 43.5 ± 8.3%

## CO[C@H]1C=CC=C(C)C(=O)NC2=CC(=O)C(NCCN(C)C)=C(C[C@@H](C)C[C@H](OC)[C@H](O)[C@@H](C)C=C(C)[C@@H]1OC(N)=O)C2=O.Cl [17-DMAG (Alvespimycin) HCl]
[2]
  percent Bodipy-positive cells: 87.1 ± 5%

## CCCOc1ccc(C=C2SC(=O)NC2=O)cc1
[3]
  percent Bodipy-positive cells: 9.73 ± 7%
[4]
  percent Bodipy-positive cells: 14.1 ± 3.2%
[5]
  percent Bodipy-positive cells: 7.7 ± 0.18%
[2]
  percent Bodipy-positive cells: 4.6 ± 0.34%

## CC/C=C\C/C=C\C/C=C\CCCCCCCC(=O)O [Linolenic acid (18:3 n-3)]
[6]
  percent Bodipy-positive cells: 10.1 ± 10%

## CC/C=C\C/C=C\C/C=C\CCCCCCCC(=O)O [.alpha.-Linolenic Acid]
[6]
  percent Bodipy-positive cells: 7.1 ± 0.98%

## CC[C@H](C)C(=O)O[C@H]1C[C@H](O)C=C2C=C[C@H](C)[C@H](CC[C@@H](O)C[C@@H](O)CC(=O)O)[C@H]21 [Pravastatin sodium salt]
[2]
  percent Bodipy-positive cells: 4.94 ± 0.58%

## CC[C@H](C)C(=O)O[C@H]1C[C@H](O)C=C2C=C[C@H](C)[C@H](CC[C@@H](O)C[C@@H](O)CC(=O)O)[C@H]21 [Pravastatin sodium]
[1]
  percent Bodipy-positive cells: 9.85 ± 0.34%
Library stock concentration: 4.5 mM
  percent Bodipy-positive cells: 14.9 ± 0.5%
[2]
  percent Bodipy-positive cells: 33.7% and 44.7%

## CC[C@H](C)C(=O)O[C@H]1C[C@H](O)C=C2C=C[C@H](C)[C@H](CC[C@@H](O)C[C@@H](O)CC(=O)O)[C@H]21 [PRAVASTATIN Sodium]
Library stock concentration: 9.5 mM
  percent Bodipy-positive cells: 6.76 ± 3.1%
